From paper PMC12869228
Results are given in words; binding and its absence hold for the method and conditions named. Binding seen in cells or lysates may run through a third protein. Some results given as binding are weak or reduced against the parent protein; the word gives no strength.

By UniProt entry, the sequences of proteins in these tests, tags left out. Where a name states a change or a piece, a line headed by the entry shows the natural chain unless it says otherwise.
UniProt P10275: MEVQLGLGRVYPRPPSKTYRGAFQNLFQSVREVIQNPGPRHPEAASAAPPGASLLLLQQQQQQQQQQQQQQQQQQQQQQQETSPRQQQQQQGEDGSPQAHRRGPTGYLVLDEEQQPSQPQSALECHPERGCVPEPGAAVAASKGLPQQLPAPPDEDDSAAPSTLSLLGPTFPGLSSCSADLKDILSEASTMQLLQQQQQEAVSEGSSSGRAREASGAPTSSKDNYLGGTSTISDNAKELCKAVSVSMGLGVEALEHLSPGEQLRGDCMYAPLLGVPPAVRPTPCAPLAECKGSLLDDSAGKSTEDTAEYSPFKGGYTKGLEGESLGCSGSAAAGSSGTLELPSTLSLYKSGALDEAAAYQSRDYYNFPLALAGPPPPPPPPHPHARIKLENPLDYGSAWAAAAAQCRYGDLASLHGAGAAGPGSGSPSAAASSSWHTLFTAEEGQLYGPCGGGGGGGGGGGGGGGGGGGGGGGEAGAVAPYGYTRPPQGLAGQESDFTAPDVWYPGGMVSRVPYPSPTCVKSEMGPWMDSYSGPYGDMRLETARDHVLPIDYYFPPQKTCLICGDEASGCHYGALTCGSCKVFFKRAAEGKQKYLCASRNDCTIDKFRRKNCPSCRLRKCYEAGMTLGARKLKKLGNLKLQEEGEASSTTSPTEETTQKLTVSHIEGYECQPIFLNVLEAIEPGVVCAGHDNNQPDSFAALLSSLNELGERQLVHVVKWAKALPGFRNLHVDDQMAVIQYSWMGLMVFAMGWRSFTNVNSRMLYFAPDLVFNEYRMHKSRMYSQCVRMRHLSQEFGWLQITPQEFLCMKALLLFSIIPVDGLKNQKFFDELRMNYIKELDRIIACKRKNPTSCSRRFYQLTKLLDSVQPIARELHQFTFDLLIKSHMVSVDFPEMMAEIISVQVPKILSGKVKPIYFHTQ
UniProt P04792: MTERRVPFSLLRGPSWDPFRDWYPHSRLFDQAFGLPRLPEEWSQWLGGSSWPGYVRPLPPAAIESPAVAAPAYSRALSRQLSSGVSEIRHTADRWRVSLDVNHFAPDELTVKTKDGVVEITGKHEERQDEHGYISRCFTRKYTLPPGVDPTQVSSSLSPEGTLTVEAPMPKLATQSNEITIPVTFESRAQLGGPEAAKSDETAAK
UniProt Q08999: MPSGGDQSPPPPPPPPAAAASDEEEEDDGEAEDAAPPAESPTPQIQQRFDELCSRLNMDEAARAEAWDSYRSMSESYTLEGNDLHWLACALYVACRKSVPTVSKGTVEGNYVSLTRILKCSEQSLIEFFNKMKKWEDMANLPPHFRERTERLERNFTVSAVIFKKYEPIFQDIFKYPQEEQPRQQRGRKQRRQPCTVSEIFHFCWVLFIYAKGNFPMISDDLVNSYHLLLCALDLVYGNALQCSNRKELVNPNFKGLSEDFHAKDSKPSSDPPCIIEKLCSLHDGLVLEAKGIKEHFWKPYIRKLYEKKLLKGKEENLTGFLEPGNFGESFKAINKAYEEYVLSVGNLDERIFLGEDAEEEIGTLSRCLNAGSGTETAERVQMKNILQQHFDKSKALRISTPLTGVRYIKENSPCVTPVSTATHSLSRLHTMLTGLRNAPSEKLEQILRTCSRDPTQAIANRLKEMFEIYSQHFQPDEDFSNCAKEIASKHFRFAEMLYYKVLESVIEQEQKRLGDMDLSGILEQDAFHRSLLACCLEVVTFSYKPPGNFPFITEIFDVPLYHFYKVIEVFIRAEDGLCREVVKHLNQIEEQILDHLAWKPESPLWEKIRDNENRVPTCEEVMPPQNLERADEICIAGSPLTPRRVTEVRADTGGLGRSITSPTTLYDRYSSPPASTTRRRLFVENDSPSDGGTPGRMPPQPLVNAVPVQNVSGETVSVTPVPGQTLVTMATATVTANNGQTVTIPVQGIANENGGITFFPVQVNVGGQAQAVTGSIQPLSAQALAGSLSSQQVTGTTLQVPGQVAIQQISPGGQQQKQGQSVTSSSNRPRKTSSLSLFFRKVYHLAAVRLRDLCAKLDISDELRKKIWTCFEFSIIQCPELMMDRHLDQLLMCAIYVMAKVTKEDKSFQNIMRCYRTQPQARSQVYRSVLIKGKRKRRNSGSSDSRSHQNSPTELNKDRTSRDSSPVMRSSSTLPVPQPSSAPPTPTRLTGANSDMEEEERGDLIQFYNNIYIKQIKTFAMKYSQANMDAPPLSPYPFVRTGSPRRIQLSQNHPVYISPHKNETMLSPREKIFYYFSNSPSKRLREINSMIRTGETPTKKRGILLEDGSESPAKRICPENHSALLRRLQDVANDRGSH

What was measured:
[1] = molecular target: androgen receptor (AR), T878A mutant endogenously expressed in C4-2 cells (human (endogenous in C4-2)) (UniProt P10275); experiment: co-IP; anti-AR antibody on protein A magnetic beads; cytosolic and nuclear fractions of C4-2 cells treated with DMSO, C28 or SAL (1 nM R1881); 4 °C, 2 h; Western blot for HSP27
[2] = molecular target: androgen receptor (AR), T878A mutant endogenously expressed in C4-2 cells (human (endogenous in C4-2)) (UniProt P10275); experiment: co-IP; anti-AR antibody or normal rabbit IgG on protein A magnetic beads; whole cell lysates of C4-2 cells treated with DMSO, C28 or SAL for 72 h; 4 °C, 2 h; washes with 1x PBS; Western blot for p130

Substance	binding [1]	binding [2]
HSP27 (from UniProt P04792 1-205)	binds	
p130 (from UniProt Q08999 1-1139)		binds
